Results: patent publication US20060183700
Where a chain is given by its changes, count along the chain named. For some assays here: The comparison behind a weaker result is the experiment's own reference, which may not be listed here. For some assays here: Protein sequences can lack the tags named with them. For some assays here: Construct, isoform or probe ends are uncertain for at least one entry. For some assays here: A negative result means that nothing was seen under these conditions.

Sequences of proteins named here, by UniProt entry; tags and fusion partners are left off. Residues count along the entry.
UniProt P01258, 85-116: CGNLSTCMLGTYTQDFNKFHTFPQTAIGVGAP
UniProt P10092, 82-118: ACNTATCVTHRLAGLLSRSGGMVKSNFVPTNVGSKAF
UniProt P12969, 38-74: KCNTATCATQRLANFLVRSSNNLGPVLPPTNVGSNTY
UniProt P10997, 34-70: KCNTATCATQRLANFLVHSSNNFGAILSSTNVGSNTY

Tests used:
[1] = molecular target: T1, alpha-CGRP (L) (Homo sapiens) (UniProt P06881); test: activity in cells; conditions: L-RNA, synthetic protein, protein details: synthetic peptide, Bachem, mirror-image nucleic acid; for functional effect of the aptamer: dose not given here
T1 sequence (looked up, limits assumed): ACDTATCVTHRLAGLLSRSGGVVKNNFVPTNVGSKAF

[2] = molecular target: T2, L-CGRP (natural configuration, species not stated) (UniProt P01256); test: inhibition of the protein; conditions: L-RNA, 2'-F pyrimidines, GTPgammaS assay, inhibits ligand binding to CRLR/RAMP1, synthetic protein, protein details: synthetic peptide, mirror-image nucleic acid, dose not given here
T2 sequence (looked up, limits assumed): T1 sequence (looked up, limits assumed) with A1S, D3N, N25D, K35E

[3] = molecular target: T3, Calcitonin (Rattus norvegicus) (UniProt P01257); test: competition with a labelled probe; conditions: L-RNA; no cross-reactivity in alpha-CGRP competition cAMP assay; purified recombinant protein; mirror-image nucleic acid; variant of NOX-504 (STAR-R02-15xx-F12) spiegelmer
T3 sequence (looked up, limits assumed): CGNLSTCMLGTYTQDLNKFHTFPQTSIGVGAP

[4] = molecular target: T4, Calcitonin (Homo sapiens) (UniProt P01258); test: competition with a labelled probe; conditions: L-RNA; no cross-reactivity in alpha-CGRP competition cAMP assay; purified recombinant protein; mirror-image nucleic acid; variant of NOX-504 (STAR-R02-15xx-F12) spiegelmer
T4 sequence (looked up, limits assumed): T3 sequence (looked up, limits assumed) with L16F, S26A

[5] = molecular target: T5, beta-CGRP (L) (Homo sapiens) (UniProt P10092); test: activity in cells; conditions: L-RNA; SK-N-MC cAMP, 37 C; synthetic protein; protein details: synthetic peptide; mirror-image nucleic acid; variant of NOX-504 (STAR-R02-15xx-F12) spiegelmer
T5 sequence (looked up, limits assumed): T1 sequence (looked up, limits assumed) with D3N, V22M, N25S

[6] = molecular target: Amylin (Rattus norvegicus) (UniProt P12969); test: activity in cells; conditions: L-RNA, synthetic protein, protein details: synthetic peptide, Bachem, mirror-image nucleic acid; for IC50: MCF-7, 3 nM rat amylin; for Kd: MCF-7 cAMP
[7] = molecular target: T6, alpha-CGRP (L) (Rattus norvegicus) (UniProt P01256); test: activity in cells; conditions: L-RNA, synthetic protein, protein details: synthetic peptide, Bachem, mirror-image nucleic acid
T6 sequence (looked up, limits assumed): T1 sequence (looked up, limits assumed) with A1S, D3N, N25D, K35E

[8] = molecular target: T7, Adrenomedullin (Homo sapiens) (UniProt P35318); test: activity in cells; conditions: L-RNA; only slight inhibition; no clear cAMP reduction at 100x excess, IC50 not determinable; purified recombinant protein; mirror-image nucleic acid; variant of NOX-504 (STAR-R02-15xx-F12) spiegelmer; dose not given here
T7 sequence (looked up, limits assumed): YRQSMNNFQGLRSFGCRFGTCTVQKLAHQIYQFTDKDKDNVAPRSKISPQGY

Amylin (Homo sapiens) = Amylin (Homo sapiens) (UniProt P10997); test: activity in cells; conditions: L-RNA, synthetic protein, protein details: synthetic peptide, Bachem, mirror-image nucleic acid; for IC50: MCF-7, 30 nM human amylin; for Kd: MCF-7 cAMP
[9] = molecular target: T8, Adrenomedullin (Rattus norvegicus) (UniProt P43145); test: activity in cells; conditions: L-RNA; only slight inhibition; no clear cAMP reduction at 100x excess, IC50 not determinable; purified recombinant protein; mirror-image nucleic acid; variant of NOX-504 (STAR-R02-15xx-F12) spiegelmer; dose not given here
T8 sequence (looked up, limits assumed): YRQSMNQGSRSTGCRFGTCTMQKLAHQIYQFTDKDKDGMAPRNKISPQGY

[10] = molecular target: T6, alpha-CGRP (L) (Rattus norvegicus); test: ITC; conditions: L-RNA; activity 47%; synthetic protein; protein details: synthetic peptide, Bachem; mirror-image nucleic acid
[11] = molecular target: T9, CGRP (biotinylated) (Rattus norvegicus) (UniProt P01256); test: SPR; conditions: KD poorer than G12; synthetic protein; protein details: biotin, synthetic peptide, Jerini
T9 sequence (looked up, limits assumed): T1 sequence (looked up, limits assumed) with A1S, D3N, N25D, K35E

[12] = variant of NOX-504 (STAR-R02-15xx-F12) spiegelmer
[13] = SK-N-MC cAMP, 37 C, variant of NOX-504 (STAR-R02-15xx-F12) spiegelmer
[14] = inhibits less than L097, variant of NOX-504-014 spiegelmer
[15] = variant of NOX-504-014 spiegelmer
[16] = SK-N-MC cAMP, variant of NOX-504-014 spiegelmer
[17] = SK-N-MC cAMP, variant of L097 (NOX-504-097) spiegelmer

CGCAGCCUUCACUGCAGUGACGCACGUAUGAUAGUUUCCAUUUUGGACUCCUGCG [732_045 spiegelmer]
IC50 ([1]; 2'-F pyrimidines, SK-N-MC cAMP, human CGRP, variant of 732_045): 22000 nM
functional effect of the aptamer ([2]; variant of 732_045): active

CGCUCAGCCUUCACUGCAGUGACGCACGUAUGAUAGUUUCCAUUUUGGACUCCUGGGCG [732_096 spiegelmer]
IC50 ([1]; 2'-F pyrimidines, SK-N-MC cAMP, human CGRP, variant of 732_096): 60000 nM
functional effect of the aptamer ([2]; variant of 732_096): active

GGACUGAUGGCGCGGUCCUAUUACGCCGAAAGGGAGAGGGGA [NOX-504-014 spiegelmer]
binding result [3]: no binding
binding result [4]: no binding
IC50 [5]: 1500 nM
Ki [5]: 0.75 nM
IC50 [6, 12]: 19 nM
Kd ([6]; calculated from IC50 (19 nM), variant of NOX-504 (STAR-R02-15xx-F12) spiegelmer): 17.5 nM
IC50 [7, 13]: 2800 nM
Ki [7, 13]: 1400 nM
functional effect of the aptamer [8]: less active
IC50 (Amylin (Homo sapiens); [12]): 15 nM
Kd (Amylin (Homo sapiens); calculated from IC50 (15 nM), variant of NOX-504 (STAR-R02-15xx-F12) spiegelmer): < 1 nM
functional effect of the aptamer [9]: less active
IC50 [1, 13]: 25000 nM
Ki [1, 13]: 12500 nM

GGACUGAUGGCGCGGUCCUAUUACGCCGAAAGGGAGAGGGGAGACAGG [NOX-504 (STAR-R02-15xx-F12) spiegelmer]
Kd [10]: 44000 nM
IC50 ([7]; SK-N-MC cAMP): 7000 nM
Kd ([7]; derived from cAMP IC50 ca. 7): 3500 nM

GGACUGAUGGCGCGGUCCUAUUACGCCGAAAGGGAGAGGGGGA [L103 spiegelmer]
functional effect of the aptamer [1, 14]: less active

GGACUGAUGGCGCGGUCCUAUUACGCCGAAAGGGAGUGGGGA [L104 spiegelmer]
functional effect of the aptamer [1, 14]: less active

GGACUGAUGGCGCGGUCCUAUUACGCCGAAAGGGAGUGGGGGA [L105 spiegelmer]
functional effect of the aptamer [1, 14]: less active

GGACUGAUGGCGCGGUCCUAUUACGCCGAGAAGGGAGAGGGGA [L102 spiegelmer]
functional effect of the aptamer [1, 14]: less active

GGACUGAUGGCGCGGUCCUAUUACGCCGAGAAGGGAGAGGGGGA [L107 spiegelmer]
functional effect of the aptamer ([1]; two insertions adequate for improved binding, variant of NOX-504-014 spiegelmer): active

GGACUGAUGGCGCGGUCCUAUUACGCCGAGAAGGGAGUGGGGA [L106 spiegelmer]
functional effect of the aptamer [1, 14]: less active

GGACUGAUGGCGCGGUCCUAUUACGCCGAGAAGGGAGUGGGGGA [L097 (NOX-504-097) spiegelmer]
IC50 [6, 15]: 10 nM
Kd ([6]; calculated from IC50 (10 nM), variant of NOX-504-014 spiegelmer): 8.5 nM
IC50 [7, 16]: 1500 nM
IC50 (Amylin (Homo sapiens); [15]): 21 nM
Kd (Amylin (Homo sapiens); calculated from IC50 (21 nM), variant of NOX-504-014 spiegelmer): 6 nM
IC50 [1, 16]: 6000 nM

GGACUGAUGGCGCGGUCCUAUUACGCCGAGAAGGGUGUGGGGGA [L109 spiegelmer]
IC50 [1, 17]: 9000 nM

GGACUGAUGGCGCGGUCCUAUUACGCCGAGUAGGGAGUGGGGGA [L108 spiegelmer]
IC50 [1, 17]: 5500 nM

GGACUGAUGGCGCGGUCCUAUUACGCCGAUAGGGUGAGGGGA [NOX-504-089 spiegelmer]
IC50 [6, 15]: 5 nM
Kd ([6]; calculated from IC50 (5 nM), variant of NOX-504-014 spiegelmer): 3.5 nM
functional effect of the aptamer ([7]; no loss of binding quality versus NOX-504-014 (FIG. 62), variant of NOX-504-014 spiegelmer, dose not given here): active
IC50 (Amylin (Homo sapiens); [15]): 16 nM
Kd (Amylin (Homo sapiens); calculated from IC50 (16 nM), variant of NOX-504-014 spiegelmer): 1 nM

GGACUGAUGGCGCGGUCCUAUUACGCCGAUAGGGUGUGGGGA [NOX-504-096 spiegelmer]
IC50 ([7]; SK-N-MC cAMP, about 5-fold poorer, variant of NOX-504-089 spiegelmer): 10000 nM

GGAGCUCAGCCUUCACUGCCAUUGAGGAUAUGCCGCGGGUCCGCAUGGAGUGGGUGUUGGGCACCACGGUCGGAUCCAG [H03a]
binding result [11]: binds more weakly

GGAGCUCAGCCUUCACUGCGGGUGGGAGGGUGGAUGGUGAAGAACGAGCGCUGACCGCGGCACCACGGUCGGAUCCAG [H08a]
binding result [11]: binds more weakly

GGAGCUCAGCCUUCACUGCGGGUGGGAGGGUGGAUGGUGGAGAACGAGCACUGACCUCGGCACCACGGUCGGAUCCAG [H08b]
binding result [11]: binds more weakly
